No constants are given. Whether binding was seen depends on the method and setting. Binding can be weak; no strength is given.
Biological target: E-cadherin protein (Proteintech) (UniProt P12830)
Experiment: MST; E-cadherin at a constant concentration (printed as 1 mM), 2-fold serial dilutions of TAGLN2; RED-NHS labelling; 50 mM Tris-HCl pH 7.4, 150 mM NaCl, 10 mM MgCl2, 0.05% Tween-20; 15 min at room temperature; Monolith NT.115, 60% MST power; both purified

The chains behind the UniProt entries cited, without tags or fusion partners. Where a name states a change or a piece, a line headed by the entry shows the natural chain unless it says otherwise.
UniProt P12830: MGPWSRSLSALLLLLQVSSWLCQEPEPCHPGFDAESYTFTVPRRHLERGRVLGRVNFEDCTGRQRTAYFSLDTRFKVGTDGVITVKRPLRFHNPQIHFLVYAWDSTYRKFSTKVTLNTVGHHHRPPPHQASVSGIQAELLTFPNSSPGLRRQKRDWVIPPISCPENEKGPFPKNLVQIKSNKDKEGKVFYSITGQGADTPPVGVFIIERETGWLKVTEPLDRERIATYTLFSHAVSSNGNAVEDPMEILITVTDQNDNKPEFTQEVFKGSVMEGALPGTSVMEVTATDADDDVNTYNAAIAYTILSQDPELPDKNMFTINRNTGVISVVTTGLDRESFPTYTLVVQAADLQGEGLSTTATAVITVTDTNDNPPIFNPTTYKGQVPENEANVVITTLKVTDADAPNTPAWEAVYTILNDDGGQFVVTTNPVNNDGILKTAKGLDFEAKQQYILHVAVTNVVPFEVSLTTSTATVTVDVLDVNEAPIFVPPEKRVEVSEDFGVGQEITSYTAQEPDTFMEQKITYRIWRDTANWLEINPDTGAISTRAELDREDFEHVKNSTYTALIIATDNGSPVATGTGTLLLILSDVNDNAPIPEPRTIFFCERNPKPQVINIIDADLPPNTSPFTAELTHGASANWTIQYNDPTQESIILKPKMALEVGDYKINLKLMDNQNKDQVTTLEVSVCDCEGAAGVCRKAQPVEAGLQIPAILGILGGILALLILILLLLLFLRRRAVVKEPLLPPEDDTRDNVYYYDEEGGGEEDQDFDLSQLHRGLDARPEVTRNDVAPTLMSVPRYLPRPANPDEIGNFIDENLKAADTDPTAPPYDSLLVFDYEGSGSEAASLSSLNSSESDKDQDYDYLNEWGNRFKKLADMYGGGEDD
UniProt P37802: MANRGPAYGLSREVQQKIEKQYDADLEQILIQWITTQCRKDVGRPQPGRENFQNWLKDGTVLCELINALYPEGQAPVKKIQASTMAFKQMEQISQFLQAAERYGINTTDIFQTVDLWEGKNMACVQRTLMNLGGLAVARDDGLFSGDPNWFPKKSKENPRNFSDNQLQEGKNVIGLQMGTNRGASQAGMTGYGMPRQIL

**Q.** With “TAGLN2 protein (purified recombinant) (from UniProt P37802 1-199)” as the substance, how does the binding read?
**A.** binds

Source: PMC8904561
